Values of other authors, collected in paper PMC6968775, “Assessment of contribution of BCRP to intestinal absorption of various drugs using portal‐systemic blood concentration difference model in mice” (Pharmacology Research & Perspectives, 2020).

What was measured:
P‐gp = conditions: Caco‐2 permeability study; unpublished data; ref Fujita et al, manuscript in preparation; cited from earlier work
BCRP = conditions: Caco‐2 permeability study; ref (10); Kawahara et al, manuscript in revision; cited from earlier work

## O=C(O)c1cn(C2CC2)c2cc(N3CCNCC3)c(F)cc2c1=O [ciprofloxacin, Ciprofloxacin]
P‐gp
  AQp‐gp in vitro (Caco‐2): 0.13
BCRP
  AQbcrp in vitro (Caco‐2): 0.03
